# Assay results taken from article doi:10.1101/2019.12.16.877498.
# Sequences of proteins named here, by UniProt entry; tags and fusion partners are left off. A change or cut given only in a name is not applied to a line headed by its entry.
# UniProt Q8TDG2: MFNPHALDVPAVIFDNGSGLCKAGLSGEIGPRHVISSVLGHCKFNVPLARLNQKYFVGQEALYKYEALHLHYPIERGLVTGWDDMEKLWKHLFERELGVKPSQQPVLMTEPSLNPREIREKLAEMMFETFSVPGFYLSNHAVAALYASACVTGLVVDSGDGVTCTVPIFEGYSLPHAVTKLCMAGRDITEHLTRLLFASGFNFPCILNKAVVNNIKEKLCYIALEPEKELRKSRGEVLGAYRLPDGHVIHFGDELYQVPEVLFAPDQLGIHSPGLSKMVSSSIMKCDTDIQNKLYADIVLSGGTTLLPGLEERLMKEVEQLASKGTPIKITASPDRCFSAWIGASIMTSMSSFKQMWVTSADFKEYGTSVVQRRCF
# UniProt P23258: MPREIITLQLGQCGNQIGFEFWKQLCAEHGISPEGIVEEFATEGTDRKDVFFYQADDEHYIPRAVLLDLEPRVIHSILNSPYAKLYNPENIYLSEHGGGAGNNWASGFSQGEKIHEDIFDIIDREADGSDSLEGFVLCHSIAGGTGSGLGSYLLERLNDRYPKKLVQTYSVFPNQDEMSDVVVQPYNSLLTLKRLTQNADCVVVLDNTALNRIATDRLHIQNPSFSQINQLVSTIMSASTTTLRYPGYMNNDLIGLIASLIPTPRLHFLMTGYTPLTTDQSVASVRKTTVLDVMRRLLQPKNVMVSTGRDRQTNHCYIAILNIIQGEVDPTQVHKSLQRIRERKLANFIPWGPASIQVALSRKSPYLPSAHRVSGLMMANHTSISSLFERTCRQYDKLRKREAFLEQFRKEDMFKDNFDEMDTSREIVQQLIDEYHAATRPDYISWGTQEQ
# Experiments:
# [1] = target: ARP-T1, endogenous (human (endogenous in hTERT-RPE1)) (UniProt Q8TDG2); test: proximity ligation
# [2] = target: Actin-Related Protein-Testis1 (ARP-T1), wild type, tagged with Myc-DDK (human) (UniProt Q8TDG2); test: co-IP
substance,measurement,setting,value
γ-Tubulin (from UniProt P23258),binding,[1],binds
same,binding,[2],binds

# These are yes or no findings as the source states them, for the method shown. In cells and extracts the contact can be indirect. A result given as binding can be weak or reduced; the word gives no strength.
